Results deposited as PubChem BioAssay AID1224826 (NIAID, 2016).
Screen: 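Regulators of Tlr4 signalling leading to Tnf-alpha expression in macrophages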 (primary screen). Cell system: RAW264.7 G9 macrophages from mouse bearing reporters for p65 (GFP) and the Tnf promoter (mCherry). Knock-down reagent: siRNA pool against mouse genes, 100 nM. Time to read-out: 16 h of LPS stimulation, after 2 days of siRNA transfection. Treatment: bacterial lipopolysaccharide (Salmonella minnesota R595), 10 ng/ml. Read-out: 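Nuclear mCherry signal of the Tnf promoter reporter measured by imaging after background removal, scaled to each plate median and turned into robust z-scores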. Reading the numbers: Tnf reporter robust z-score: higher = stronger Tnf promoter reporter signal after LPS; Tnf reporter intensity: higher = stronger Tnf promoter reporter signal. Active means: 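a well counts as active at a score of -1.3 or below (Tlr4 knock-down control median) or above 3 (raised signal); controls and wells holding fewer than 50 cells are excluded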. Meaning of the calls: active = Tnf reporter clearly lowered or raised; inactive = no clear change in Tnf reporter.
This is one part, drawn at random, of about 17,000 reagents. In the full data, about 1,110 (6.6%) got an active call. 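Active means lowered or raised reporter signal; replicate intensities are raw and not normalised per plate.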 A number with no mark means an inactive call. The numbers tell different reagents against one gene apart.

no.	Target gene	reagent no.	Tnf reporter robust z-score	fewer than 50 cells in well	Tnf reporter intensity, replicate 1	Tnf reporter intensity, replicate 2
1	Ankrd16 (ankyrin repeat domain 16)	1	0.74	enough cells in well	233	204
2	Tm9sf2 (transmembrane 9 superfamily member 2)	1	-1.62 (active)	enough cells in well	47.7	47.4
3	Abhd4 (abhydrolase domain containing 4)	1	-0.64	enough cells in well	134	112
4	Flot1 (flotillin 1)	1	1.29	enough cells in well	337	208
5	Tcf7 (transcription factor 7, T cell specific)	1	0.16	enough cells in well	244	80.1
6	Tusc2 (tumor suppressor 2, mitochondrial calcium regulator)	1		fewer than 50 cells per well; well left out of calls	94.6	95.1
7	Dvl2 (dishevelled segment polarity protein 2)	1	0.09	enough cells in well	251	201
8	Mrfap1 (Morf4 family associated protein 1)	1	-1.32 (active)	enough cells in well	104	100
9	Nyap1	1	1.97	enough cells in well	339	272
10	Edem1 (ER degradation enhancer, mannosidase alpha-like 1)	1	1.6	enough cells in well	338	371
11	Olig2 (oligodendrocyte transcription factor 2)	1	-0.75	enough cells in well	197	124
12	Gucy1b2 (guanylate cyclase 1, soluble, beta 2)	1	-0.8	enough cells in well	174	123
13	Hmox1 (heme oxygenase 1)	1	-0.83	enough cells in well	170	136
14	Cd79b (CD79B antigen)	1	0.61	enough cells in well	285	262
15	4933409G03Rik (RIKEN cDNA 4933409G03 gene)	1	5.16 (active)	enough cells in well	361	188
16	Hamp (hepcidin antimicrobial peptide)	1	0.8	enough cells in well	289	224
17	Nrarp (Notch-regulated ankyrin repeat protein)	1	-0.35	enough cells in well	165	133
18	Pgm1 (phosphoglucomutase 1)	1	-0.49	enough cells in well	117	116
19	Samt4 (spermatogenesis associated multipass transmembrane protein 4)	1	1.14	enough cells in well	291	91.2
20	Olfr908 (olfactory receptor 908)	1	-0.52	enough cells in well	124	58.2
21	Lysmd3 (LysM, putative peptidoglycan-binding, domain containing 3)	1	-1.65 (active)	enough cells in well	83.6	101
22	E230001N04Rik (RIKEN cDNA E230001N04 gene)	1	-1.01	enough cells in well	116	80.9
23	Arl10 (ADP-ribosylation factor-like 10)	1	-0.77	enough cells in well	126	122
24	Hoxa9 (homeobox A9)	1	-0.09	enough cells in well	218	194
25	Dennd5b (DENN domain containing 5B)	1	0.1	enough cells in well	160	215
26	Nfib (nuclear factor I/B)	1	-0.71	enough cells in well	192	132
27	Nfib (nuclear factor I/B)	2	-0.8	enough cells in well	129	89.1
28	Pdxp (pyridoxal (pyridoxine, vitamin B6) phosphatase)	1	0.83	enough cells in well	327	218
29	Npepl1 (aminopeptidase-like 1)	1	-1.3 (active)	enough cells in well	127	66.9
30	Polr2d (polymerase (RNA) II (DNA directed) polypeptide D)	1	-1.7 (active)	enough cells in well	68.4	65.8
31	Rbm17 (RNA binding motif protein 17)	1	1.09	enough cells in well	150	200
32	Nthl1 (nth (endonuclease III)-like 1 (E.coli))	1	-0.45	enough cells in well	206	153
33	Zhx1 (zinc fingers and homeoboxes 1)	1	-1.48 (active)	enough cells in well	125	102
34	Pmaip1 (phorbol-12-myristate-13-acetate-induced protein 1)	1	-1.6 (active)	enough cells in well	65.5	53.5
35	Pyy (peptide YY)	1	-0.03	enough cells in well	138	119
36	H2-M10.6 (histocompatibility 2, M region locus 10.6)	1	1.74	enough cells in well	394	258

7 entries already listed, ordered by “Tnf reporter intensity, replicate 1”, low to high:
Target gene	reagent no.	Tnf reporter robust z-score	fewer than 50 cells in well	Tnf reporter intensity, replicate 1	Tnf reporter intensity, replicate 2
Tusc2 (tumor suppressor 2, mitochondrial calcium regulator)	1		fewer than 50 cells per well; well left out of calls	94.6	95.1
Mrfap1 (Morf4 family associated protein 1)	1	-1.32 (active)	enough cells in well	104	100
Abhd4 (abhydrolase domain containing 4)	1	-0.64	enough cells in well	134	112
Tcf7 (transcription factor 7, T cell specific)	1	0.16	enough cells in well	244	80.1
Dvl2 (dishevelled segment polarity protein 2)	1	0.09	enough cells in well	251	201
Flot1 (flotillin 1)	1	1.29	enough cells in well	337	208
Nyap1	1	1.97	enough cells in well	339	272

Further entries follow.
no.	Target gene	reagent no.	Tnf reporter robust z-score	fewer than 50 cells in well	Tnf reporter intensity, replicate 1	Tnf reporter intensity, replicate 2
37	Degs1 (delta 4-desaturase, sphingolipid 1)	1	0.48	enough cells in well	244	265
38	Txlng (taxilin gamma)	1		fewer than 50 cells per well; well left out of calls	205	57.8
39	Map1a (microtubule-associated protein 1 A)	1	-0.28	enough cells in well	290	143
40	Clmb (calcimembrin)	1	3.15 (active)	enough cells in well	352	177
41	Trim23 (tripartite motif-containing 23)	1	-0.62	enough cells in well	176	189
42	Gata6 (GATA binding protein 6)	1	-0.61	enough cells in well	57.5	177
43	Me1 (malic enzyme 1, NADP(+)-dependent, cytosolic)	1	1	enough cells in well	378	253
44	Erfe (erythroferrone)	1		fewer than 50 cells per well; well left out of calls	73.4	27.3
45	Gstp2 (glutathione S-transferase, pi 2)	1	-0.43	enough cells in well	244	179
46	Lrrc66 (leucine rich repeat containing 66)	1	-0.73	enough cells in well	169	141
47	Aste1 (asteroid homolog 1)	1	0.36	enough cells in well	306	83.5
48	Tpd52l1 (tumor protein D52-like 1)	1	-0.86	enough cells in well	202	72.2
49	Zbtb14 (zinc finger and BTB domain containing 14)	1	0.06	enough cells in well	204	270
50	Trpm2	1	-0.59	enough cells in well	170	200
51	Kctd19 (potassium channel tetramerisation domain containing 19)	1	-0.36	enough cells in well	183	61.5
52	Cd5l (CD5 antigen-like)	1	-0.89	enough cells in well	158	159
53	Vhl (von Hippel-Lindau tumor suppressor)	1	-0.09	enough cells in well	221	225
54	Mepce (methylphosphate capping enzyme)	1	2.08	enough cells in well	172	260
55	Rufy3 (RUN and FYVE domain containing 3)	1	-0.86	enough cells in well	96.2	105
56	Cts3 (cathepsin 3)	1	-0.5	enough cells in well	164	136
57	Blmh (bleomycin hydrolase)	1	-1.07	enough cells in well	76.6	125
58	Uqcrc1 (ubiquinol-cytochrome c reductase core protein 1)	1	0.64	enough cells in well	268	293
